{"source": "PubChem BioAssay AID1508597 (Cure First, 2020)", "purpose": "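Survival screen with siRNA in ovarian cancer cells derived from patients, with or without rucaparib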 (primary screen)", "system": "human ovarian carcinoma lines grown from tumours: OCI-P5x (papillary serous) and OCI-C5x (clear cell)", "reagents": "siRNA pool against human genes, 1.25 pmol siRNA per well", "time to read-out": "72 h or 96 h, depending on the cell culture", "conditions": "rucaparib 20 µM (about IC30) or vehicle, present until read-out", "detection": "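ATP luminescence measured at 72 or 96 h according to the culture, then normalised and expressed as percent viability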", "reading the numbers": "viability, normalised: higher = more viable cells remaining", "active means": "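a well counts as a hit if its normalised viability is under 80 percent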", "meaning of the calls": "active = viability under 80%; inactive = viability 80% or more", "note": "In all, the deposit lists about 2,100 reagents; this is an unselected part. 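Calls flag viability under 80% in either arm, not effects specific to rucaparib; the reference for percent is not stated.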 Not given: the 100% reference."}
{"Gene":"PRKAA1","PubChem SID":"SID405527676","rucaparib or vehicle":"Rucaparib","cell line":"OCI-C5x (clear cell)","technical replicate":"1","viability, normalised (%)":64.1,"call":"active"}
{"Gene":"PRKAA1","PubChem SID":"SID405527676","rucaparib or vehicle":"Rucaparib","cell line":"OCI-C5x (clear cell)","technical replicate":"2","viability, normalised (%)":54.8,"call":"active"}
{"Gene":"PRKAA1","PubChem SID":"SID405527676","rucaparib or vehicle":"Rucaparib","cell line":"OCI-C5x (clear cell)","technical replicate":"3","viability, normalised (%)":43.8,"call":"active"}
{"Gene":"PRKAA1","PubChem SID":"SID405527676","rucaparib or vehicle":"Rucaparib","cell line":"OCI-P5x (serous)","technical replicate":"1","viability, normalised (%)":95.7,"call":"inactive"}
{"Gene":"PRKAA1","PubChem SID":"SID405527676","rucaparib or vehicle":"Rucaparib","cell line":"OCI-P5x (serous)","technical replicate":"2","viability, normalised (%)":85,"call":"inactive"}
{"Gene":"PRKAA1","PubChem SID":"SID405527676","rucaparib or vehicle":"Rucaparib","cell line":"OCI-P5x (serous)","technical replicate":"3","viability, normalised (%)":98.6,"call":"inactive"}
{"Gene":"PRKAA1","PubChem SID":"SID405527676","rucaparib or vehicle":"Vehicle","cell line":"OCI-C5x (clear cell)","technical replicate":"1","viability, normalised (%)":59.1,"call":"active"}
{"Gene":"PRKAA1","PubChem SID":"SID405527676","rucaparib or vehicle":"Vehicle","cell line":"OCI-C5x (clear cell)","technical replicate":"2","viability, normalised (%)":77.4,"call":"active"}
{"Gene":"PRKAA1","PubChem SID":"SID405527676","rucaparib or vehicle":"Vehicle","cell line":"OCI-C5x (clear cell)","technical replicate":"3","viability, normalised (%)":50.8,"call":"active"}
{"Gene":"PRKAA1","PubChem SID":"SID405527676","rucaparib or vehicle":"Vehicle","cell line":"OCI-P5x (serous)","technical replicate":"1","viability, normalised (%)":98.1,"call":"inactive"}
{"Gene":"PRKAA1","PubChem SID":"SID405527676","rucaparib or vehicle":"Vehicle","cell line":"OCI-P5x (serous)","technical replicate":"2","viability, normalised (%)":93.9,"call":"inactive"}
{"Gene":"PRKAA1","PubChem SID":"SID405527676","rucaparib or vehicle":"Vehicle","cell line":"OCI-P5x (serous)","technical replicate":"3","viability, normalised (%)":69.4,"call":"active"}
